Primary screen of a compound library

Sequences of proteins named here, by UniProt entry; tags and fusion partners are left off.
UniProt E9BF75, entry or part of it: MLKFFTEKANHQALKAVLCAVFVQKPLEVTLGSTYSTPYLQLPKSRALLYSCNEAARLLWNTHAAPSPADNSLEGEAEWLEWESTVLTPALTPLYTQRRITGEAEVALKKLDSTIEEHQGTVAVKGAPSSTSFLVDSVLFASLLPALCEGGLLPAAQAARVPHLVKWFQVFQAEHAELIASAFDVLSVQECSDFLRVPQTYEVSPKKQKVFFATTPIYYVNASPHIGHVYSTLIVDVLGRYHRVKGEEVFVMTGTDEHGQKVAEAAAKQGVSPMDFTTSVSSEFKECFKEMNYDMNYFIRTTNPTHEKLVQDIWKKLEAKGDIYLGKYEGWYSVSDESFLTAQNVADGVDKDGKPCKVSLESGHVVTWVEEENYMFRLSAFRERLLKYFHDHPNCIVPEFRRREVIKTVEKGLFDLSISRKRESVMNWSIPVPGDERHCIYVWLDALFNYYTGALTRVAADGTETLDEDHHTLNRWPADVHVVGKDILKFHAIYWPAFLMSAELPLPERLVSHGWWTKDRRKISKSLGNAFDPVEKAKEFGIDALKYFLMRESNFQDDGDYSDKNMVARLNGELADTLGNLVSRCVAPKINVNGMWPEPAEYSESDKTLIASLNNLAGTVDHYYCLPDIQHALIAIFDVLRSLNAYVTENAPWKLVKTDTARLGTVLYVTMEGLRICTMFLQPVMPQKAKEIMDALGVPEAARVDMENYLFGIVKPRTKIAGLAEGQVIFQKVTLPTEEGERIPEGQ

From ChEMBL document CHEMBL3988442, “University of Dundee, Small-Polar-MMV Screening Library” (2021).

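Methionyl-tRNA synthetase (putative), Leishmania donovani (UniProt E9BF75). Primary screen of methionyl-tRNA synthetase; the read-out is not stated. The test concentration is not given. Values are per cent inhibition. About 68,000 compounds were tested under these conditions; 0.035% (about 24) showed 50% or more at least once.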

Results are percentages, as filed.
The record does not define 0% and 100%; most values in the screen are far below 50% and negative numbers occur (in some assays of this library far below -100).
This is an unselected part of the compounds tested.

| Compound | inhibition |
|---|---|
| `CNC(=O)CN1CCN(C(=O)Nc2ccc(Cl)cc2F)CC1` | 10.64 |
| `CCCN(CC1CC1)C(=O)CN1CCCC1c1cnn(C)c1` (centres unmarked) | 9.03 |
| `OCC1CCCCN1Cc1cc(O)c2cccc(F)c2n1` (centres unmarked) | 7.186 |
| `CC(C)N1CCC(NC(=O)NCc2ccccc2)CC1` | 8.707 |
| `CCc1cccc(OCC(=O)NC(C)c2nnc3n2CCC3)c1` (centres unmarked) | 8.403 |
| `Cc1ccc(C(=O)N2CCN(CCCSCC#N)CC2)o1` | 10.5 |
| `CS(=O)(=O)N1CCC(Nc2ccc(C#N)c(C(F)(F)F)c2)CC1` | 9.536 |
| `Cc1nc(C)n(CC2CN(Cc3cccc(C#N)c3)CCO2)n1` (centres unmarked) | 9.804 |
| `O=C(c1cc(-c2ccco2)nc2c(Cl)cccc12)N1C[C@H]2CNC[C@H]2C1` | 27.18 |
| `CN1CCOC(CNC(=O)C2(c3cccc(C(F)(F)F)c3)CCCC2)C1` (centres unmarked) | 6.203 |
| `CCN1CCC(c2cncc(N(C)C)n2)CC1` | 5.226 |
| `CN(Cc1ccco1)Cc1ccccc1CNC(=O)c1cc[nH]n1` | 17.03 |
| `Cn1ncc2c(N3CCC3)nc(-c3ccncc3)nc21` | 11.31 |
| `COCCC(=O)N1CCCC2(CCC(=O)N2CCOC)CC1` (centres unmarked) | 11.11 |
| `CN(C)CCCn1ccc(-c2cccc(-c3cncnc3)c2)n1` | 4.02 |
| `CCc1ccc(CCn2cnc(C#N)n2)cc1` | 6.983 |
| `Cc1nc(CN2CCCC(N(C)Cc3cscn3)C2)no1` (centres unmarked) | 28.47 |
| `CCc1nccn1C1CCCN(C(=O)c2c(C)nsc2NC)C1` (centres unmarked) | 0.8671 |
| `Cc1cc(CN2CCC3(CC2)COC(COCC2CC2)C3)no1` (centres unmarked) | 16.42 |
| `CN(C(=O)CSc1ncc[nH]1)c1ccccc1` | 18.62 |
| `Cc1occc1C(=O)N1CCO[C@H]2[C@@H](Oc3ccccn3)CC[C@@H]21` | 8.711 |
| `CCc1cc(NCCNC(=O)c2cccnc2)n2nc(C)c(C)c2n1` | 3.133 |
| `CS(=O)(=O)N1CCCC12CCCN(C(=O)c1cc(F)cc(F)c1)C2` (centres unmarked) | 4.467 |
| `c1ccc(-c2noc(CNC3CCCN(c4cccnn4)C3)n2)nc1` (centres unmarked) | 26.09 |
| `Fc1cnc(N2CC[C@@H](N3CCOCC3)[C@@H]2Cc2ccccc2)nc1` | 5.759 |
| `CCc1c(C)nc2ccccc2c1N1CCC(O)CC1` | 16.31 |
| `COc1cccc(CN(C)C(=O)c2ccc(NC(C)=O)s2)c1OC` | 12.57 |
| `CCc1nc(C)c(CN2CCCC(c3nn(C)c(=O)n3CC)C2)[nH]1` (centres unmarked) | 8.541 |
| `Cc1c(C(=O)N2CCCC(n3nnc4cc(F)ccc43)C2)cnn1C` (centres unmarked) | 11.98 |
| `Cc1cc(C(=O)NC2CCCN(c3ccccc3)C2=O)on1` (centres unmarked) | 18.54 |
| `Cc1cc(C(F)(F)F)nn1C(C)C(=O)Nc1ccc(Cl)cn1` (centres unmarked) | 20.96 |
| `O=C(c1cnc(-c2cccs2)s1)N1CCCC(n2ccnc2)C1` (centres unmarked) | 17.09 |
| `Cc1cc(CN2CCC(CNS(=O)(=O)c3c(C)noc3C)CC2)c(C)o1` | 8.873 |
| `O=C(Nc1ccccc1)N1CCn2c(nnc2C2CCCN2)C1` (centres unmarked) | 12.57 |
| `O=C(CCNc1ncccn1)NCc1csc(Br)c1` | -4.749 |
| `c1cncc(NCCNC2CCSC2)c1` (centres unmarked) | 7.888 |
| `CN1CCN(S(=O)(=O)c2cccc(F)c2)c2cnccc21` | 18.94 |
| `CC(C)C(=O)N1CC[C@H]2N(C)CC[C@@]2(C(=O)N2CCCC2)CC1` | 11.2 |
| `NC(=O)[C@H]1CCCN(c2nccc(-c3c[nH]nc3-c3cccnc3)n2)C1` | 8.01 |
| `Cc1ccn(CCNc2ncnc3c2CCN(Cc2ncc[nH]2)CC3)n1` | 13.73 |
| `CCc1noc(CN2CCC(NC(=O)c3ccc(C)s3)CC2)n1` | 10.63 |
| `CC(C)NC(=O)N1CCc2onc(C(=O)Nc3cccnc3)c2C1` | 6.667 |
| `CNC(=O)CSc1cnn(CC(=O)Nc2cccc(Cl)c2C)c(=O)c1Cl` | 12.32 |
| `O=C(NCC1(C(=O)O)CCC1)c1nnn(-c2ccc(F)cc2)c1C1CC1` | -0.5495 |
| `O=C(NC1(c2cccc(F)c2)CCOCC1)c1cc[nH]n1` | 15.75 |
| `O=C(NCCc1cccnc1)NC1CCOC2(CCCCC2)C1` (centres unmarked) | 8.967 |
| `COc1ccc(F)cc1C[S+]([O-])CC(=O)NCc1ccccc1C` (centres unmarked) | 3.43 |
| `CCNc1cc2c(nn1)CCN(C(=O)c1ccc3cc[nH]c3c1)C2` | 21.43 |
| `C=C(C)COc1cccc(C(=O)N(CC)Cc2nc(COC)no2)c1` | 21.04 |
| `Cc1cc(C)n(CC2CCCN2Cc2ncc(C(C)(C)C)o2)n1` (centres unmarked) | 15.67 |
| `O=C(c1ccc2nncn2c1)N1CCCC1c1noc(C2CC2)n1` (centres unmarked) | 8.193 |
| `COc1cc(F)c(CN2CCN(CC(C)C)C(=O)C2C)cc1OC` (centres unmarked) | 11.11 |
| `CCc1nc(C2CCCN2Cc2cnc(C)cn2)no1` (centres unmarked) | 15.66 |
| `O=C(Nc1ccccc1-c1cccs1)N1CCN(CC(F)F)CC1` | 13.83 |
| `COc1cc(C2CC(=O)c3c(O)cc(O)cc3O2)ccc1O` (centres unmarked) | 4.396 |
| `COCCCNC(=O)Cn1c(C)cc(=O)n2nc(-c3cccs3)nc12` | 8.163 |
| `CC1CN(C)CCN1C(=O)c1cccn1Cc1cccs1` (centres unmarked) | 22.3 |
| `COCCO[C@@H]1C[C@H]2CN(C(=O)c3cnccn3)CCN2C1` | 9.623 |
| `COc1ccc(CN2CCCC2Cn2nc(C)nc2C)cc1F` (centres unmarked) | 16.67 |
| `CC(=O)N(C)CC(=O)NCC1CCN(c2cc(Cl)ccc2C)C1` (centres unmarked) | 11.22 |
| `c1ccc2ncc(CC3CCNC3)cc2c1` (centres unmarked) | 0 |
| `COc1cc(N2CCC3(CC2)CNC(=O)CO3)ncn1` | 7.692 |
| `CN1CC(=O)c2sc(NCCc3ccccc3)nc2C1` | 3.641 |
| `CCN(C(=O)COC)C(c1cccnc1)c1ccc2c(c1)CCO2` (centres unmarked) | 11.5 |
| `N#Cc1cc(C(F)(F)F)ccc1NCC1CCS(=O)(=O)CC1` | 4.348 |
| `COCCN1C(=O)CC[C@]12CC[C@@H](NCc1ccc(OC)cc1)CC2` | -3.114 |
| `Cc1ccc2cc(C(=O)N3CCS(=O)(=O)CC3)[nH]c2c1` | 20.64 |
| `c1ccc(-c2cc(CN3CCCC(Cn4cncn4)C3)on2)cc1` (centres unmarked) | 13.11 |
| `CS(=O)(=O)NCc1nnc2n1CCN(Cc1cccs1)CC2` | 12.94 |
| `Cn1cc(CN2CC[C@@H]3[C@@H](CCC(=O)N3CCc3ccccc3)C2)cn1` | 12.77 |
| `O=C1[C@H]2CN(CC3CC3)C[C@H]2CN1Cc1cccc(F)c1` | 3.704 |
| `O=C(NCCNc1ccc(C(F)(F)F)cn1)c1ccoc1` | 3.759 |
| `CCc1ccccc1OCC(=O)N1CCOCC1c1ncon1` (centres unmarked) | 6.145 |
| `Cc1nnc2n1CCN(Cc1ncc(-c3ccc(Cl)cc3)o1)C2` | 16.33 |
| `O=c1[nH]nc2nc(N3CCOCC3)ccn12` | 3.727 |
| `Cc1nn(-c2ccccc2)nc1C(=O)NCC(c1ccsc1)N(C)C` (centres unmarked) | 8.681 |
| `OCCCNC1CCc2cc3c(cc21)OCCO3` (centres unmarked) | 14.43 |
| `CCn1cc(S(=O)(=O)NC(=O)CCc2c[nH]c3ccccc23)cn1` | 15.96 |
| `CC(=O)N1CCN(C(=O)CCn2c(C)nc3ccccc3c2=O)CC1` | 21.86 |
| `CN1CCOCC2(CCN(Cc3ccc[nH]3)CC2)C1` | 9.42 |
| `CC1c2ncc(COc3cccnc3)n2CCN1Cc1cnn(C)c1` (centres unmarked) | 7.038 |
| `COc1c(C)cnc(CN2CCCCC2Cn2nc(C)nc2C)c1C` (centres unmarked) | 7.981 |
| `CC(C)c1nc2c(n1C)CCN(CC(=O)Nc1ccc(Cl)cn1)C2` | 9.028 |
| `CCOCC1CC2(CCN(C(=O)C3CC=CC3)CC2)CO1` (centres unmarked) | 8.014 |

10 of the entries, repeated:

Compound	inhibition
CC(C)c1nc2c(n1C)CCN(CC(=O)Nc1ccc(Cl)cn1)C2	9.028
Cc1nc(C)n(CC2CN(Cc3cccc(C#N)c3)CCO2)n1 (centres unmarked)	9.804
COCCC(=O)N1CCCC2(CCC(=O)N2CCOC)CC1 (centres unmarked)	11.11
NC(=O)[C@H]1CCCN(c2nccc(-c3c[nH]nc3-c3cccnc3)n2)C1	8.01
CNC(=O)CSc1cnn(CC(=O)Nc2cccc(Cl)c2C)c(=O)c1Cl	12.32
CS(=O)(=O)N1CCC(Nc2ccc(C#N)c(C(F)(F)F)c2)CC1	9.536
CCNc1cc2c(nn1)CCN(C(=O)c1ccc3cc[nH]c3c1)C2	21.43
CCn1cc(S(=O)(=O)NC(=O)CCc2c[nH]c3ccccc23)cn1	15.96
CS(=O)(=O)N1CCCC12CCCN(C(=O)c1cc(F)cc(F)c1)C2 (centres unmarked)	4.467
O=c1[nH]nc2nc(N3CCOCC3)ccn12	3.727